According to paper PMC3124419, “Elucidating the domain architecture and functions of non-core RAG1: The capacity of a non-core zinc-binding domain to function in nuclear import and nucleic acid binding” (BMC Biochemistry, 2011):
No constants are given. Whether binding was seen depends on the method and setting. Sequences can lack the tags named with a protein. Values belong to the binder of their own block, whether it stands above or below them.

Key:
[1] = molecular target: MBP-CND (murine) (UniProt P15919); experiment: SEC-MALS; MALLS-SEC of MBP fusion proteins, 20 mL Superdex 200, starting concentration 3-10 μM, GFB buffer (20 mM Tris pH 8.0, 0.2 M NaCl, 50 μM ZnCl2, 5 mM βME); both purified
[2] = molecular target: tagless CND (murine) (UniProt P15919); experiment: SEC-MALS; MALLS-SEC of the tagless domain, 120 mL Superdex 75, loading concentration 23 μM, GFB buffer; both purified
[3] = molecular target: MBP-RAG1(1-86) (murine) (UniProt P15919); experiment: SEC-MALS; MALLS-SEC of MBP fusion proteins, 20 mL Superdex 200, starting concentration 3-10 μM, GFB buffer (20 mM Tris pH 8.0, 0.2 M NaCl, 50 μM ZnCl2, 5 mM βME); both purified
[4] = molecular target: MBP-RAG1(1-86) (murine) (UniProt P15919); experiment: SEC; Superdex 200, 20 ml column volume; column buffer 20 mM Tris pH 8.0, 0.2 M NaCl, 50 μM ZnCl2, 5 mM βME; both purified

B1: MBP-CND (domain or fragment, UniProt P15919 87-217)
chain: SKKFHADGKSSDKAVHQARLRHFCRICGNRFKSDGHSRRYPVHGPVDAKTQSLFRKKEKRVTSWPDLIARIFRIDVKADVDSIHPTEFCHDCWSIMHRKFSSSHSQVYFPRKVTVEWHPHTPSCDICFTAH
binding [1]: no binding (tested: 3-10 μM starting concentration)

B2: tagless CND (domain or fragment, UniProt P15919 87-217)
chain: SKKFHADGKSSDKAVHQARLRHFCRICGNRFKSDGHSRRYPVHGPVDAKTQSLFRKKEKRVTSWPDLIARIFRIDVKADVDSIHPTEFCHDCWSIMHRKFSSSHSQVYFPRKVTVEWHPHTPSCDICFTAH
binding [2]: no binding (tested: 23 μM loading concentration)

binding [4]: no binding
B3: MBP-RAG1(1-86) (domain or fragment, UniProt P15919 1-86)
chain: MAASLPSTLSFSSAPDEIQHPQIKFSEWKFKLFRVRSFEKAPEEAQKEKDSSEGKPYLEQSPVVPEKPGGQNSILTQRALKLHPKF
binding [3]: no binding (tested: 3-10 μM starting concentration)
